# Assay results as given in the supplement of paper PMC10032668.
# By UniProt entry, the sequences of proteins in these tests, tags left out.
# LRPAP1, P30533, UniProt P30533, whole entry: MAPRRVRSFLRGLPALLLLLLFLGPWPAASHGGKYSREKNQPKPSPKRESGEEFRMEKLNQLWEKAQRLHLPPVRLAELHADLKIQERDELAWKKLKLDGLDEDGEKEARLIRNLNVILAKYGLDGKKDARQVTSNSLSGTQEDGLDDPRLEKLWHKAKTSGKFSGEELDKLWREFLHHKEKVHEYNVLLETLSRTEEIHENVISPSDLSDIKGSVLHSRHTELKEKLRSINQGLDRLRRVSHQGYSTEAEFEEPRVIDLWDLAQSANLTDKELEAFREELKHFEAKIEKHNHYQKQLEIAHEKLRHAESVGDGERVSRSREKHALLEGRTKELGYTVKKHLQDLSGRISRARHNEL
# MAPK1, P28482, UniProt P28482, whole entry: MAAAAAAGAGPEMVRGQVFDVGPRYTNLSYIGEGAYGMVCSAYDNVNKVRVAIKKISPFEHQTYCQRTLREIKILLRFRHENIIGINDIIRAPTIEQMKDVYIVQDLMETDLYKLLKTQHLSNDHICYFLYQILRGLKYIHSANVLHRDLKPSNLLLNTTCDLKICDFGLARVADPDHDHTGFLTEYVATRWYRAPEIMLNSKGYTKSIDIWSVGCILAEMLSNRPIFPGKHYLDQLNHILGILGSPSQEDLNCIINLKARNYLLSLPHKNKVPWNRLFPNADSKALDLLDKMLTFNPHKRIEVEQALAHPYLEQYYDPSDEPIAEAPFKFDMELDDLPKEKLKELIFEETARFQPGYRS
# MORF4L1, Q9UBU8, UniProt Q9UBU8, whole entry: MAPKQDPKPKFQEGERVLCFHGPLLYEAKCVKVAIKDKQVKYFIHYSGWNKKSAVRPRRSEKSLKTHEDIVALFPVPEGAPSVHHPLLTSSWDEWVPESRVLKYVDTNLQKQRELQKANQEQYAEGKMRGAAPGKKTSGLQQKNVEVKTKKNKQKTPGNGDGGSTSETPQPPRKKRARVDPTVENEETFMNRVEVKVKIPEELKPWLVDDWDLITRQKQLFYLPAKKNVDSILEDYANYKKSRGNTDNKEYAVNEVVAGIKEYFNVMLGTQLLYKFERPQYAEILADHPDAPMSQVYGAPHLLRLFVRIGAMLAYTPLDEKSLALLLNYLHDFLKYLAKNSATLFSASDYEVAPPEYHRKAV
# MORF4L2, Q15014, UniProt Q15014, whole entry: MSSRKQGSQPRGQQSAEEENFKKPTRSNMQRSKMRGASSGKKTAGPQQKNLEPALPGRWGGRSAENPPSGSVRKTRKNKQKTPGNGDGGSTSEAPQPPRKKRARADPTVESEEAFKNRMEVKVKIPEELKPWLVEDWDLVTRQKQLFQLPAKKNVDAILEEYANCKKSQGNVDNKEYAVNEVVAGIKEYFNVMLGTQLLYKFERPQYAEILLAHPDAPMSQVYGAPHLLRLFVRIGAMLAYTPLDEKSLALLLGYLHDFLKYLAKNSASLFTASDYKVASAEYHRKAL
# MPG, P29372, UniProt P29372, whole entry: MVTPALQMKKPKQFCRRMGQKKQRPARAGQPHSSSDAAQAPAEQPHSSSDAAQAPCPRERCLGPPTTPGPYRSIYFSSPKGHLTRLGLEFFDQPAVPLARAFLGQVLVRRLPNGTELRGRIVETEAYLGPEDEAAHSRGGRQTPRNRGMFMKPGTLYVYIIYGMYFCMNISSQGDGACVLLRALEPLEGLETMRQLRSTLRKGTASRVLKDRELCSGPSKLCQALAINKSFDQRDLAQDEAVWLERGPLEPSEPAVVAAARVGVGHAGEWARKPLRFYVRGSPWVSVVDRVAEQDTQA
# NUTF2, P61970, UniProt P61970, whole entry: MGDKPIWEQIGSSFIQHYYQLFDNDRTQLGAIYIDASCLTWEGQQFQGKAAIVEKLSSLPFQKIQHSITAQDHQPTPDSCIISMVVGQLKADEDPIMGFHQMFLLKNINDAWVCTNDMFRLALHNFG
# PDLIM7, Q9NR12, UniProt Q9NR12, whole entry: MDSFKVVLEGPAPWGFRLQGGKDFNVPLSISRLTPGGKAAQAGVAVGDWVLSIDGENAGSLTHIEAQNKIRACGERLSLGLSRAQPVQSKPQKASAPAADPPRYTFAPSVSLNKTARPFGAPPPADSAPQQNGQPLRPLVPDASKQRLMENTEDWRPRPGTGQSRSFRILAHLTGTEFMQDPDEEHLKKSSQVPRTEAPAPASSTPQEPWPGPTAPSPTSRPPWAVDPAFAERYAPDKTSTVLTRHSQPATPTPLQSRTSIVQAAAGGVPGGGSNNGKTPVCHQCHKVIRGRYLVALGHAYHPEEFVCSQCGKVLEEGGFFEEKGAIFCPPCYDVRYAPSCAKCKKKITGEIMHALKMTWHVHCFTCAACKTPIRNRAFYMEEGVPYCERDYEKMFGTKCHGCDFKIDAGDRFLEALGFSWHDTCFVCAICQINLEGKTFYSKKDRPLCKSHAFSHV
# PIN1, Q13526, UniProt Q13526, whole entry: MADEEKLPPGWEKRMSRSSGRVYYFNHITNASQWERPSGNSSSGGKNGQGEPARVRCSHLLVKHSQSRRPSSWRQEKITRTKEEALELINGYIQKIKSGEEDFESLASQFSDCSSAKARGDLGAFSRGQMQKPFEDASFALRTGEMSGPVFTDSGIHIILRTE
# PIN4, Q9Y237, UniProt Q9Y237, whole entry: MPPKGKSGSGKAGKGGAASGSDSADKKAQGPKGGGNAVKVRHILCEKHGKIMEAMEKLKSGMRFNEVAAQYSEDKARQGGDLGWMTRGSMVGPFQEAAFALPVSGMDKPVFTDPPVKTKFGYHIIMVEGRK
# PLK1, P53350, UniProt P53350, whole entry: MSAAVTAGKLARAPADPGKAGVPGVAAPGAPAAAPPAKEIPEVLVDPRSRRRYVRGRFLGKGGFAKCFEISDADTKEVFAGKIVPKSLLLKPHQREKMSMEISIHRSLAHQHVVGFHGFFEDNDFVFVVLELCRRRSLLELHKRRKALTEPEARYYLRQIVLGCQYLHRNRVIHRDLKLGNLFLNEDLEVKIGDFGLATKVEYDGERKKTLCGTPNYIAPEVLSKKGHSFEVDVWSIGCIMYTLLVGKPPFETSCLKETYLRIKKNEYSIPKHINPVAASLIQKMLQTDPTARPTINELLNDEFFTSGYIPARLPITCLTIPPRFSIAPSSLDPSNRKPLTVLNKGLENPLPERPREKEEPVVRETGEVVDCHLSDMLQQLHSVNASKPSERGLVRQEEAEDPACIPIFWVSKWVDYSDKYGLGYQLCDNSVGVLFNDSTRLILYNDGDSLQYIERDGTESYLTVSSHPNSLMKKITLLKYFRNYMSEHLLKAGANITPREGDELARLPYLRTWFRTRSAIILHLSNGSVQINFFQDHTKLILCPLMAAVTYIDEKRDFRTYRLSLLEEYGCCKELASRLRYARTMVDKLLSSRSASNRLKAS
# ± gives the standard deviation of the averaged measurements. Some of the results follow. Only hits are listed; about a third recur on repeated control peptides.
# What was measured:
# Test in all cases: PRISMA enrichment of interactor (LFQ) in peptide spot vs all other peptide spots (log2 fold change); higher = stronger / more specific binding of the interactor to the peptide
# LRPAP1, P30533 = biological target: LRPAP1, P30533
# Procedure: (§1)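 PRISMA: 221 full-length sORF-encoded peptides (3-15 aa), plus SOS1/GLUT1 control peptides, were spot-synthesized on cellulose membranes in triplicate. Membranes were incubated with HEK293T lysate, and bound proteins were identified by LC-MS/MS with LFQ. Enrichment is the log2 fold change versus all other peptide spots; only significant interactors are listed (cutoff c=6, x0=2.8).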
# LSM14A, Q8ND56 = biological target: LSM14A, Q8ND56
# Procedure: as §1
# LSM14B, Q9BX40 = biological target: LSM14B, Q9BX40
# Procedure: as §1
# MACF1 = biological target: MACF1
# Procedure: as §1
# MAP7D1, Q3KQU3 = biological target: MAP7D1, Q3KQU3
# Procedure: as §1
# MAPK1, P28482 = biological target: MAPK1, P28482
# Procedure: as §1
# MAPK1IP1L, Q8NDC0 = biological target: MAPK1IP1L, Q8NDC0
# Procedure: as §1
# MAZ, P56270 = biological target: MAZ, P56270
# Procedure: as §1
# MBNL1, Q9NR56 = biological target: MBNL1, Q9NR56
# Procedure: as §1
# MCM3, P25205 = biological target: MCM3, P25205
# Procedure: as §1
# MCM5, P33992 = biological target: MCM5, P33992
# Procedure: as §1
# METTL26, Q96S19 = biological target: METTL26, Q96S19
# Procedure: as §1
# MMACHC, Q9Y4U1 = biological target: MMACHC, Q9Y4U1
# Procedure: as §1
# MORF4L1, Q9UBU8 = biological target: MORF4L1, Q9UBU8
# Procedure: as §1
# MORF4L2, Q15014 = biological target: MORF4L2, Q15014
# Procedure: as §1
# MPG, P29372 = biological target: MPG, P29372
# Procedure: as §1
# MPP1, Q00013 = biological target: MPP1, Q00013
# Procedure: as §1
# MRRF, Q96E11 = biological target: MRRF, Q96E11
# Procedure: as §1
# NMD3, Q96D46 = biological target: NMD3, Q96D46
# Procedure: as §1
# NME4, O00746 = biological target: NME4, O00746
# Procedure: as §1
# [1] = substrate: NONO, Q15233
# Procedure: as §1
# [2] = substrate: NOSIP, Q9Y314
# Procedure: as §1
# NTHL1, P78549 = biological target: NTHL1, P78549
# Procedure: as §1
# NUDT16L1, Q9BRJ7 = biological target: NUDT16L1, Q9BRJ7
# Procedure: as §1
# NUFIP2, Q7Z417 = biological target: NUFIP2, Q7Z417
# Procedure: as §1
# NUSAP1, Q9BXS6 = biological target: NUSAP1, Q9BXS6
# Procedure: as §1
# NUTF2, P61970 = biological target: NUTF2, P61970
# Procedure: as §1
# NXF1, Q9UBU9 = biological target: NXF1, Q9UBU9
# Procedure: as §1
# PAK4, O96013 = biological target: PAK4, O96013
# Procedure: as §1
# PCLAF, Q15004 = biological target: PCLAF, Q15004
# Procedure: as §1
# [3] = substrate: PCNP, Q8WW12
# Procedure: as §1
# PDCD6, O75340 = biological target: PDCD6, O75340
# Procedure: as §1
# PDLIM7, Q9NR12 = biological target: PDLIM7, Q9NR12
# Procedure: as §1
# PICALM, Q13492 = biological target: PICALM, Q13492
# Procedure: as §1
# PIN1, Q13526 = biological target: PIN1, Q13526
# Procedure: as §1
# PIN4, Q9Y237 = biological target: PIN4, Q9Y237
# Procedure: as §1
# PINX1, Q96BK5 = biological target: PINX1, Q96BK5
# Procedure: as §1
# PLK1, P53350 = biological target: PLK1, P53350
# Procedure: as §1
# POLDIP3, Q9BY77 = biological target: POLDIP3, Q9BY77
# Procedure: as §1
# POLRMT, O00411 = biological target: POLRMT, O00411
# Procedure: as §1
# [4] = substrate: PPIF, P30405
# Procedure: as §1
binder,measurement,setting,value
MMFWTEF [SH3D19],PRISMA enrichment of interactor (log2),"LRPAP1, P30533",5.12
same,PRISMA enrichment of interactor (log2),"LSM14A, Q8ND56",6.37
same,PRISMA enrichment of interactor (log2),"LSM14B, Q9BX40",5.54
same,PRISMA enrichment of interactor (log2),MACF1,5.03
same,PRISMA enrichment of interactor (log2),"MAP7D1, Q3KQU3",3.9
same,PRISMA enrichment of interactor (log2),"MAPK1, P28482",4.69
same,PRISMA enrichment of interactor (log2),"MAPK1IP1L, Q8NDC0",4.39
same,PRISMA enrichment of interactor (log2),"MAZ, P56270",5.65 ± 1.8
same,PRISMA enrichment of interactor (log2),"MBNL1, Q9NR56",6.46
same,PRISMA enrichment of interactor (log2),"MCM3, P25205",5.07
same,PRISMA enrichment of interactor (log2),"MCM5, P33992",5.28
same,PRISMA enrichment of interactor (log2),"METTL26, Q96S19",4.36
same,PRISMA enrichment of interactor (log2),"MMACHC, Q9Y4U1",3.9
same,PRISMA enrichment of interactor (log2),"MORF4L1, Q9UBU8",5.24
same,PRISMA enrichment of interactor (log2),"MORF4L2, Q15014",7.33
same,PRISMA enrichment of interactor (log2),"MPG, P29372",6.83
same,PRISMA enrichment of interactor (log2),"MPP1, Q00013",4.05
same,PRISMA enrichment of interactor (log2),"MRRF, Q96E11",5.7
same,PRISMA enrichment of interactor (log2),"NMD3, Q96D46",5.2
same,PRISMA enrichment of interactor (log2),"NME4, O00746",5.57
same,PRISMA enrichment of interactor (log2),[1],5.71
same,PRISMA enrichment of interactor (log2),[2],6.99
same,PRISMA enrichment of interactor (log2),"NTHL1, P78549",5.31
same,PRISMA enrichment of interactor (log2),"NUDT16L1, Q9BRJ7",5.58
same,PRISMA enrichment of interactor (log2),"NUFIP2, Q7Z417",4.64
same,PRISMA enrichment of interactor (log2),"NUSAP1, Q9BXS6",5.5
same,PRISMA enrichment of interactor (log2),"NUTF2, P61970",5.01
same,PRISMA enrichment of interactor (log2),"NXF1, Q9UBU9",7.24
same,PRISMA enrichment of interactor (log2),"PAK4, O96013",4.38
same,PRISMA enrichment of interactor (log2),"PCLAF, Q15004",4.82
same,PRISMA enrichment of interactor (log2),[3],5.89
same,PRISMA enrichment of interactor (log2),"PDCD6, O75340",5.38
same,PRISMA enrichment of interactor (log2),"PDLIM7, Q9NR12",5.23
same,PRISMA enrichment of interactor (log2),"PICALM, Q13492",6.07
same,PRISMA enrichment of interactor (log2),"PIN1, Q13526",5.25
same,PRISMA enrichment of interactor (log2),"PIN4, Q9Y237",5.41
same,PRISMA enrichment of interactor (log2),"PINX1, Q96BK5",6.32
same,PRISMA enrichment of interactor (log2),"PLK1, P53350",7.12
same,PRISMA enrichment of interactor (log2),"POLDIP3, Q9BY77",6.11
same,PRISMA enrichment of interactor (log2),"POLRMT, O00411",5.67
same,PRISMA enrichment of interactor (log2),[4],6.21

# Copied from the entries so far for reference:
binder,measurement,setting,value
MMFWTEF [SH3D19],PRISMA enrichment of interactor (log2),"MCM5, P33992",5.28
same,PRISMA enrichment of interactor (log2),"METTL26, Q96S19",4.36
